Measurements from publication PMC3006384, “Phosphorylation of Mouse Immunity-Related GTPase (IRG) Resistance Proteins Is an Evasion Strategy for Virulent Toxoplasma gondii” (PLoS Biology, 2010).
No constants are given. Whether binding was seen depends on the method and setting. Some entries that bind do so weakly or less than the wild type.

Biological target: recombinant Irga6-T108D (bacterially expressed) (mouse) (UniProt Q9QZ85)
Experiment: light scattering; GTP-dependent oligomerisation of recombinant Irga6 monitored by conventional light scattering, as described earlier (ref. 16); both purified

B1: recombinant Irga6-T108D (bacterially expressed) (protein, UniProt Q9QZ85 1-413)
chain: MGQLFSSPKSDENNDLPSSFTGYFKKFNTGRKIISQEILNLIELRMRKGNIQLTNSAISDALKEIDSSVLNVAVTGETGSGKSSFINTLRGIGNEEEGAAKTGVVEVDMERHPYKHPNIPNVVFWDLPGIGSTNFPPNTYLEKMKFYEYDFFIIISATRFKKNDIDIAKAISMMKKEFYFVRTKVDSDITNEADGKPQTFDKEKVLQDIRLNCVNTFRENGIAEPPIFLLSNKNVCHYDFPVLMDKLISDLPIYKRHNFMVSLPNITDSVIEKKRQFLKQRIWLEGFAADLVNIIPSLTFLLDSDLETLKKSMKFYRTVFGVDETSLQRLARDWEIEVDQVEAMIKSPAVFKPTDEETIQERLSRYIQEFCLANGYLLPKNSFLKEIFYLKYYFLDMVTEDAKTLLKEICLRN
binding: binds weakly
